The record followed here is publication PMC10681313.

Chains of the proteins cited; added tags and fusions are not shown.
UniProt P61407: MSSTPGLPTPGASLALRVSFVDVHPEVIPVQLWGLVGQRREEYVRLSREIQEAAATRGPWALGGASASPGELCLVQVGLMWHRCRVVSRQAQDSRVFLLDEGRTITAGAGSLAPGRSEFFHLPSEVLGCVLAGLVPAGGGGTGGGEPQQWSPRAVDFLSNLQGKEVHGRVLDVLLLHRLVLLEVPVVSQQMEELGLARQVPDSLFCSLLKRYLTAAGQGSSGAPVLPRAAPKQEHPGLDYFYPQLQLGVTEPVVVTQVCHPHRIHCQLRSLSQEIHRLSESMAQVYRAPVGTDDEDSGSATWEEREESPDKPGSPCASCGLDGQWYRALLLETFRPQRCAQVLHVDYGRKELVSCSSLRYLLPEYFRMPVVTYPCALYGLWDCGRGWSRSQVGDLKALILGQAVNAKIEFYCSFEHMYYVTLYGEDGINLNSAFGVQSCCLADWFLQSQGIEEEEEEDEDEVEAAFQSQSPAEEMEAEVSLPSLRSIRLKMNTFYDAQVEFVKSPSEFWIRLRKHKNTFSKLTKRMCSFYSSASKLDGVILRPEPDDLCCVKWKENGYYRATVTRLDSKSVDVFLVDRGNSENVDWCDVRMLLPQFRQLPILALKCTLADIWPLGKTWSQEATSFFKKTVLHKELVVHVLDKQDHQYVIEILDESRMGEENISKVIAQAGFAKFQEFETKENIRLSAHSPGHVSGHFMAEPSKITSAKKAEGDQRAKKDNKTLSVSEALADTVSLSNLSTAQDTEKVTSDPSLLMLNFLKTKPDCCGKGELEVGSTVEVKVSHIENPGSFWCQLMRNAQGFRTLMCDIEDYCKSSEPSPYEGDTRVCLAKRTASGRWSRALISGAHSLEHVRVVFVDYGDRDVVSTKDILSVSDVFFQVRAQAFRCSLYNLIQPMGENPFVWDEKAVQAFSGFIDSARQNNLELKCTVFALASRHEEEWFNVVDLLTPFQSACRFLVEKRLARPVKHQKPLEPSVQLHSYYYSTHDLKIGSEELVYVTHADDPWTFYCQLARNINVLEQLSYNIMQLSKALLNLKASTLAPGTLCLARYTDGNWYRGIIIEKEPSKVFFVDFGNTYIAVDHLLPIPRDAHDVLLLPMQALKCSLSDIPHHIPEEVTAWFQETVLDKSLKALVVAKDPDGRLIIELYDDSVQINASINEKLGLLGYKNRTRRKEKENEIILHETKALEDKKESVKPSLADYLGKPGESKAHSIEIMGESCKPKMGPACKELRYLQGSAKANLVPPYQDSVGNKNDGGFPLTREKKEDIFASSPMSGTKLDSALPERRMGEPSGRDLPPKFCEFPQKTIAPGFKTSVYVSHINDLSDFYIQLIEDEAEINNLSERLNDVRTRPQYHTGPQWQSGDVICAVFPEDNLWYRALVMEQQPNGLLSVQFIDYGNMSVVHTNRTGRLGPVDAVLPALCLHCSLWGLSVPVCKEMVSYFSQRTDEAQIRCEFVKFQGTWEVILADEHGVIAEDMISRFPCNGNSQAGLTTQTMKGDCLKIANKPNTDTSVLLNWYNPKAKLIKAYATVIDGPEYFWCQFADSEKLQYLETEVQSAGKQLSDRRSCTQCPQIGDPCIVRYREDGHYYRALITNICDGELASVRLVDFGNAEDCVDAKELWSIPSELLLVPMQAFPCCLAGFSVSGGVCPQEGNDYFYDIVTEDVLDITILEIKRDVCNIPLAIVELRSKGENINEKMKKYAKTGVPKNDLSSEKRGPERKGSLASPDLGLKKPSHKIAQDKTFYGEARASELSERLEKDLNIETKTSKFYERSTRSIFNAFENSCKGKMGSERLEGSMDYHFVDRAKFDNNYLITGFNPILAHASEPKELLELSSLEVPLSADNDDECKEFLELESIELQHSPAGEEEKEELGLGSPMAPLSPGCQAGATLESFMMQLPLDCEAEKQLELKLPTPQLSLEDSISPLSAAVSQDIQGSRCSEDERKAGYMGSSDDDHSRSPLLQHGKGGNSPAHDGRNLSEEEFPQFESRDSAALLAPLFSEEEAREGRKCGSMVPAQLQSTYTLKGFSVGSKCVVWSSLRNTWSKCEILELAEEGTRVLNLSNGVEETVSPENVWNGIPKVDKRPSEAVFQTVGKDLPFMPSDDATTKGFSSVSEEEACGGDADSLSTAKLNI

Assay [1] concerns the target MIWI (endogenous, mouse testes) (mouse (endogenous in testes)) (UniProt Q9JMB7). Briefly: co-IP; mouse testis lysates (20 mM HEPES pH 7.3, 150 mM NaCl, 2.5 mM MgCl2, 0.2% NP-40, 1 mM DTT); immunoprecipitation with anti-MIWI antibody and protein-A agarose, 4 h at 4°C; Western blotting of MIWI, TDRKH, TDRD6. On the technique in general: In western blotting, separated proteins are transferred to a membrane and probed.

The target is the same in assay [2]. The assay is described as above. The source holds these as a separate data set.
The target in assay [3] is T1, FLAG-tagged MIWI^RK (mouse), Q9JMB7.
T1 chain: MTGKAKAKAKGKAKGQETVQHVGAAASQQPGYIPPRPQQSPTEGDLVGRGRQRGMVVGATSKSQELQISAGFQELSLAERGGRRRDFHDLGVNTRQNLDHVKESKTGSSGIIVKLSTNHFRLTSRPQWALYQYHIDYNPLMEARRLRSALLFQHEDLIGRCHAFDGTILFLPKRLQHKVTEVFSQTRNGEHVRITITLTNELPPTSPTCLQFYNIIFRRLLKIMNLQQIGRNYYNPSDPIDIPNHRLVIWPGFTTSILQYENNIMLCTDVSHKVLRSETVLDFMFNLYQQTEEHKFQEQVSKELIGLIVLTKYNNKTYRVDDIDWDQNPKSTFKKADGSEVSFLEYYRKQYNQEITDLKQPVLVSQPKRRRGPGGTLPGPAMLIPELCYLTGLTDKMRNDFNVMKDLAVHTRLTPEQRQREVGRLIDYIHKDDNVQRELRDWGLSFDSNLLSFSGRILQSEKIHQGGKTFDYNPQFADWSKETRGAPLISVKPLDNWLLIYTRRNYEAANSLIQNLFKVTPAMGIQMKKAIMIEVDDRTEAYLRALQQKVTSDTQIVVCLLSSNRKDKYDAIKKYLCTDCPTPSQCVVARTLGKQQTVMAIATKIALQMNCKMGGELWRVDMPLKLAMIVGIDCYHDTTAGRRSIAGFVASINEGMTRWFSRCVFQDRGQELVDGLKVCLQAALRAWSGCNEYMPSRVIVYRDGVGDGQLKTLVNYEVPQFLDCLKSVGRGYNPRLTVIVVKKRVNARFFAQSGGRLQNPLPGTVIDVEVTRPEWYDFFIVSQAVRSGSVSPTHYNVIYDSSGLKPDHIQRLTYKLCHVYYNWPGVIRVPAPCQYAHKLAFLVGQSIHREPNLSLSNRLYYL
Briefly: co-IP; HEK293T cells co-transfected with FLAG-tagged MIWI or MIWI^RK and GFP-tagged proteins; after 48 h immunoprecipitation with anti-FLAG M2 Affinity Gel; Western blotting with anti-GFP and anti-FLAG. Conditions: remark: other sources report otherwise.

In the next assay the target is FLAG-tagged MIWI (mouse) (UniProt Q9JMB7). The description is as above.
Assay [4] has as its target FLAG-tagged MIWI^RK (mouse) (UniProt Q9JMB7). The assay is described as above.

Like-named read-outs stand apart in the source and are kept apart here. No constants are given. Whether binding was seen depends on the method and setting. Binding seen in cells or lysates may run through a third protein. Some results given as binding are weak or reduced against the parent protein; the word gives no strength. For some of these results: Where a sequence is shown, tags or fusion partners need not be part of it.

“TDRD6 (endogenous, mouse testes) (from UniProt P61407 1-2134)”: the binding entry in assay [1] is on record as “binds”.

B1: TDRKH (endogenous, mouse testes) (protein, UniProt Q80VL1 1-560)
chain: MSTERTSWTNLSTIQKIALGLGIPASATVAYILYRRYRESREERLTFVGEDDIEIEMRVPQEAVKLIIGRQGANIKQLRKQTGARIDVDTEDVGDERVLLISGFPVQVCKAKAAIHQILTENTPVFEQLSVPQRSVGRIIGRGGETIRSICKASGAKITCDKESEGTLLLSRLIKISGTQKEVAAAKHLILEKVSEDEELRKRIAHSAETRVPRKQPISVRREEVTEPGGAGEAALWKNTNSSMGPATPLEVPLRKGGGDMVVVGPKEGSWEKPNDDSFQNSGAQSSPETSMFEIPSPDFSFHADEYLEVYVSASEHPNHFWIQIIGSRSLQLDKLVSEMTQHYENSLPEDLTVHVGDIVAAPLSTNGSWYRARVLGTLENGNLDLYFVDFGDNGDCALKDLRALRSDFLSLPFQAIECSLARIAPTGEEWEEEALDEFDRLTHCADWKPLVAKISSYVQTGISTWPKIYLYDTSDEKKLDIGLELVRKGYAVELPEDMEENRTVPNMLKDMATETDDSLASILTETKKSPEEMPHTLSCLSLSEAASMSGDDNLEDDLF
As for B1, the binding result in assay [2] is reported as “binds”.

B2: GFP-tagged TDRD5, Q5VCS6 1-1040 (protein)
chain: MSEQERIQDCLRKEIRSLLISTKDGLTPQQLEKEYLLMVGNHLPLRILGYRSTMELVLDMPDVVSVCPGGDGTVILKAIPDESTKGIASLVAKQRRSHKVRNSMPKGRPSICSGRVPYRGRVPPILPAVVKSELKDLLALSPVLLSDFEKAFARRFGRSFQYMQYGFLSMFEVLNAASDVISVEQTRAGSLLTLKKSVSEDKQRGWPAGKVFTQPFRMKQQGSYSTGFPVMKAHFSQPISNMEPPKQVLSMAKTPTFNSVEASRLNHTEKLNQLESTFKSVIAQIGPGGTVDPELKRKIQFVVSKFPQGLFISKLLGEFELTFKEQLSPKQLGFLNVTELVGALSDILRVEFSEERQDLLVFDADLKPLPSGGPLSSVRNSCLVQPDKKTEANPWTSSLSRNSLSTVAVKKTTWDCPLKNQKEPEQKIYKKPNLVVKPLQLQVETNKPQLSLSVANHDIPPDAVRAKKLCRLPPLDTSTLVGVFVEYIISPSQFYIRIYSRDSSELLEDMMIEMRRCYSNQLVSDRYIMPEYFIQPGHLCCVKISEDKWWYRVIIHRILGKKEVEVFYPDFGNIGTVQKSSLRFLKCCYTKLPAQAIPCSLAWVRPAEEHWTARAILHFQKLCGLKPLVGVVDEYIDGILNIFLCDTSSNEDVYFHHVLRTEGHAIVCRENAPSKGFRDFNPPALYTNASSAGDMVLTDLGHPAQQHYLNEDQEILQQAQQDINDGKCISYLKSAPKELLKDSKLSSLKTHKSCEEDPRWSILQPKDLKEENEDEVPTGMPCLESVTIGDDVWDENWLPLQAKMGKAGSPASQLFTSNLVGKKQYQTGGEMAQKDWCFSTSKDIWDDSWQPLGLANDVKGGIHTPEGPIAQEKNTSTTRIQQQPDLQYPLDSSTLPKLEEFYISLIKSQQSAERSQSEPASIQTHAGRAASKALSSTPAVGDSPENHSGSVESSPGSLKKEDVSNSRAEATAKDKSQGAIDQLSFILSPQHQISQKLYIPRSTATAVLGAAARLATSRSLLHWYPSVKGGKLEAERDGVK
With B2, the binding entry in assay [3] was “binds”.

B3: GFP-tagged MOV10L1 (protein, UniProt Q99MV5 1-1187)
chain: MIDDLIYFSNDAVTSTVLLNVGQEVIAVVEENKVSNGLKAIRVEAVSDKWEDDSKNSSKGLSDSSPRVLIGCVTSMLEGAGYISQTTYFSLESVCEGFHPCKGDWVEAEYWIRPGTWSSEAISVKPLRYKRVDKVCISSLCGRNGVIEDSIFFSLDSLKLPEGYIPRRHDIVNAVVVESSQSCYIWRALCMTPVKRDATLGEAPQEPYGALLLKNKGDIEVTRMTSFGTLKEGESKSIVIWIENKGKFSRELVSCRLANWDKAHQFRFETQGRSKSCPGAAAGSVPEGENVNSLNHHREDKTDEIPESRLANSTEISPDGCACKEESREKGNTPEKQEPEPGGLIPPGEKTHIVVTCSAKNPGRCKELLLLCFSDFLIGRHLEVSVVSSEEALIAVREPFSWKKPKSSQTLVSAKTTVVVTTQKRNSRRQLPSFLPQYPIPDRLKKCVEQKIDILTFQPLLAELLNMSNYKEKFSTLLWLEEIHAEIELKEYNMSRVVLKRKGDLLVLEVPGLAESRPSLYAGDKLILKSQEYNGHVIEYIGYVMEIHEEDVTLKLNPGFEQMYNFEPMDVEFTYNRTTSRRCHYALEQVIHLGVKVLFPEEIILQSPQVTGNWSLAQDTKNDGQSITNITRNDGQSMTKVTRNDSQSITNIIRNDGQSITNVTRNDGQPITKVTRNNSQSITNITRNDGQPITKNKKTVKDQTKHTTEERHVGTTDQPEKASSTAETMDEIQIPKARDKEFFNPVLNENQKLAVRRILSGDCRPLPYILFGPPGTGKTVTIIEAVLQVHYALPDSRILVCAPSNSAADLVCLRLHESKVPKPAAMVRVNATCRFEETIIDAIKPYCRDGEDIWRASRFRIIITTCSSAGLFYQIGVRVGYFTHVFVDEAGQASEPECLIPLGLISDINGQIVLAGDPMQLGPVIKSRLAMAYGLNVSMLERLMSRPAYLRDENAFGACGAYNPLLVTKLVKNYRSHSALLALPSRLFYHRELEVCADPKVVTSLLGWEKLPRKGFPLIFHGVRGNEAREGRSPSWFSPAEAVQVMRYCCLLARSVSSQVSSKDIGVITPYRKQVEKIKILLRNVDLTDIKVGSVEEFQGQEYLVIVISTVRSNEDRFEDDRYFLGFLSNSKRFNVAITRPKALLIILGNPHVLVRDPCFGALLEYSVSNGVYTGCDLPPELQALQK
With B3, the binding entry (with FLAG-tagged MIWI (mouse); in assay [4]) was “binds” in each case.

B4: GFP-tagged STK31 (protein, UniProt Q99MW1 1-1018)
chain: MWGQRLFAGTAVAQSVSFPGLVQMDEDTHYNKVEDVVGSHVEDAVTFWAQNVSKNKDIMKIGCSLSEVCPLANSVFGNLDPKKIYGGLFSEDKCWYRCKVLKTISDDKCLVRYIDYGNTEILNRSDIVEIPPELQFSSIAKKYRLWGLQIPSGQEVTQFDQGRTFLGSLIFEKEIKMRIKATYQDGTVIAQAEYGTVDIGEEVAKKGFAEKCRLTSGIDACEAKKPDPNQLALRSLKNPIPLWGRRSNQSTFSRPKGHFNGRLTLDVKYETSAGNHVTFPKESLAAGDFNLGSNVSLAKIKQDQKLIEENEKLKTEKEVLLENYKALELKVEQTAQELQQEKTATMDLTKHLESTLKTCVGTRLKNLAAKVELLKEIRHINISIRFGNDLSDAMQVLDEGSFTTLASLNELEKIWAEYNVAQEKIQTCLNENEGNILIAERNEVQQKLFVAVDVFILEVDDLPLDKRLKTLQDLATSLESVYGKAKEGTNNSEETLRKFYDWQCTKREEFASIRSETEASLQHLVAWFQSSQKVFDLSLDEPLTSEDLIGNIDEILEKTESCVCKELELSLIEQGVIDKEIILSTYSQVLQKIHSEEKFIATLLSKYKDSVEFKKQMIDCLNKNPNVDYLLSIKKTLKGLKAQLRWKLVEKSNLEESDDHDGTEIEKIKQEITQLRNSVFQEIYHEREEYEKLNSLTQKWFPELPLLYPEIGLLKYMNSGGLLTMSLERDLLDTEPMKELSSKRPLVCSEVNGQPVLLKGYSVDVDTEGRVIQRAASYHRACGYAKEESGLLPLIFLFLCKSDPVAYLMVPYYPKANLSAVQASMPLTSEEALKVMKGVARGLHTLHSANIIHGSLHQNNVFALNREQGIVGDYDFTKSESQRASVNAMVGGLSLLSPELKTGKPPSASSDLYAYGCLFLWLSVQNQEFETNEDGIPKVDQFHLDDNVKSLLCSLIYFRSSMTAEQVLNAECFLLPKGKSVPIPEKEIECTQHSREDESKMESLDRYSEKTRNGEANP
Regarding B4, the binding result (in the assay with FLAG-tagged MIWI (mouse); in assay [4]) was “binds” throughout.
